Some of the results follow. The main result of the screen is listed elsewhere. These columns were measured beside it and carry no call. Compounds called inactive in the main read-out are mostly missing here. Words in brackets tell the shape of the fitted curve; partial curves, single points and poor fits give uncertain potencies.
Assay: qHTS Assay for Lipid Storage Modulators in Drosophila S3 Cells;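 for cell number change: cells counted by Cell Tracker Red CMTPX staining in the red channel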
Conditions: BODIPY lipid droplet fluorescence, 18-24 h; for cell number change: measured here: cell count max response, cells fed with added oleic acid
Summary of the method: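 Drosophila S3 cells got compounds at several concentrations plus oleic acid (400 uM solution). Laser-scanning cytometry with 488 nm excitation read lipid droplets at 500-530 nm and cells at 575-640 nm. Percent activity was relative to 20 uM Triacsin C.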

[1] = measured here: cell number channel AC50, cells fed with added oleic acid
[2] = measured here: lipid fluorescence (Fed channel) AC50, cells fed with added oleic acid

Row | Compound | cell number change [%] | AC50 [1] | AC50 [2]
1 | O=C(CO/N=C/c1ccccc1OC(F)F)NC1CCCCC1 | 46.7 | 23.1 µM [rising, single point] | 
2 | Cc1cc(C(=O)N/N=C\C(Br)=C\c2ccccc2)c(C)o1 | 26.5 | 0.731 µM [falling, single point] | 
3 | COc1ccc(/C=C/C(=O)NNC(=O)c2ccncc2)c(OC)c1 | -4.52 |  | 0.58 µM [falling, single point]
4 | COc1ccc(CCNC(=O)c2cc3c(=O)n4ccccc4nc3n(C3CCCCC3)c2=N)cc1 | -26.5 | 2.31 µM [rising, single point] | 11.6 µM [falling, single point]
5 | Cc1cc(OCC(=O)NCC2CCC(C(=O)O)CC2)c2c(C)cc(=O)oc2c1 (configuration not stated) | 23 |  | 5.17 µM [rising, full curve]
6 | COc1ccccc1NC(=O)/C(=C/c1cccs1)NC(=O)c1ccco1 | -37.2 | 5.17 µM [falling, partial curve, poor fit] | 29.1 µM [falling, partial curve, poor fit]
7 | COc1ccc(N2C(=O)CC(N3CCN(S(=O)(=O)c4c(C)cc(C)cc4C)CC3)C2=O)cc1 (configuration not stated) | -34.8 | 0.731 µM [falling, full curve, poor fit] | 1.64 µM [falling, partial curve]
8 | COc1ccc(/C=C/C(=O)NC(C)CCc2ccccc2)cc1 (configuration not stated) | 3.99 |  | 0.103 µM [rising, full curve, poor fit]
9 | CCN(C(=O)CSc1nnc(-c2ccncc2)n1C)C1CCS(=O)(=O)C1 (configuration not stated) |  | 4.11 µM [falling, single point] | 
10 | NC(=O)c1ccc(SCC(=O)OCC(=O)NC2CCCCCCC2)c([N+](=O)[O-])c1 | -11.7 |  | 0.259 µM [falling, full curve, poor fit]
11 | COc1ccc(C(=O)Nc2ccncc2)cc1S(=O)(=O)N1CCOCC1 | -5.83 |  | 23.1 µM [falling, single point]
12 | CCC(C)(NC(=O)c1ccccc1)C(=O)O (configuration not stated) | -23.7 |  | 0.651 µM [falling, full curve, poor fit]
13 | CN(C)c1ccnc2sc(C(=O)c3ccccc3)c(N)c12 | 26.1 |  | 14.6 µM [rising, partial curve]
14 | O=C(NCCS(=O)(=O)N1CCN(c2cccc(Cl)c2)CC1)c1ccco1 | 5.72 |  | 
15 | Cc1ccc(-n2c(Cc3cccn3C)nnc2SCC(=O)NCc2ccco2)cc1 | -8.09 | 5.8 µM [falling, single point] | 
16 | Cn1c(N=Nc2ccccc2)nc2ccccc21 | -43.6 | 18.4 µM [falling, single point] | 
17 | Clc1ccc(C(c2nnnn2C2CCCC2)N2CCSCC2)cc1 (configuration not stated) | 5.49 |  | 
18 | Cc1ccc(C(=O)Nc2nc3ccccc3s2)s1 | 16 |  | 0.0058 µM [falling, full curve]
19 | N#Cc1ccc(CSc2ccccn2)c(Cl)c1 | 12.5 |  | 29.1 µM [falling, single point]

Single records, as listed above:
COc1ccc(CCNC(=O)c2cc3c(=O)n4ccccc4nc3n(C3CCCCC3)c2=N)cc1 in the list: cell number change [%]: -26.5; AC50 [1]: 2.31 µM [rising, single point]; AC50 [2]: 11.6 µM [falling, single point]
O=C(CO/N=C/c1ccccc1OC(F)F)NC1CCCCC1 in the list: cell number change [%]: 46.7; AC50 [1]: 23.1 µM [rising, single point]

(next part)

Row | Compound | cell number change [%] | AC50 [1] | AC50 [2]
20 | Cc1ccc(C)c(NC(=O)COc2coc(CN3CCc4ccccc43)cc2=O)c1 | -1 | 2.06 µM [rising, partial curve] | 
21 | Cc1cccc(NC(=O)c2ccc(COc3ccccc3[N+](=O)[O-])o2)n1 | -5.67 | 4.11 µM [rising, single point] | 
22 | COc1ccccc1-c1cc(C(=O)NC2CCN(C)CC2)c2ccc(Cl)c(C)c2n1 | 18 |  | 35.5 µM [rising, single point]
23 | CCCn1c(SCC(=O)NCc2ccc(F)cc2)n[nH]c1=O | 23.8 | 0.0651 µM [rising, full curve, poor fit] | 0.0326 µM [rising, full curve]
24 | CN(C)CCCC(C)(O)C(Cc1ccccc1)c1ccccc1 (configuration not stated) | 42.5 | 20.6 µM [rising, single point] | 18.4 µM [rising, single point]
25 | O=C(Nc1cccc2ccccc12)OCc1cncs1 | 16.3 |  | 
26 | COc1cc(C2C(C(C)=O)=C(O)C(=O)N2CCN2CCOCC2)ccc1O (configuration not stated) | -78.1 | 14.6 µM [falling, partial curve, poor fit] | 1.16 µM [falling, full curve]
27 | O=C(Nc1nc2ccccc2n1Cc1ccc(Cl)cc1)c1ccco1 | 1.44 |  | 
28 | OC(COCC(F)(F)C(F)(F)C(F)(F)C(F)F)Cn1c2ccccc2c2ccccc21 (configuration not stated) | -48.8 | 29.1 µM [falling, single point] | 
29 | Cn1cnnc1SCc1ccccc1 | -42.5 | 29.1 µM [falling, single point] | 
30 | CCc1ccc(-c2nc(CS(=O)CC(=O)NCCN3CCCCCC3)c(C)o2)cc1 (configuration not stated) | -34.9 | 0.146 µM [falling, full curve, poor fit] | 
31 | O=c1[nH]c(CSc2nnnn2-c2ccccc2)nc2ccccc12 |  |  | 5.62 µM [rising, single point]
32 | O=C(N/N=C/C1CC2C=CC1C2)c1ccccc1O (configuration not stated) | -11.3 |  | 
33 | O=C1C=CCC(/C=C/c2ccccc2)O1 (configuration not stated) | -25.8 |  | 2.59 µM [falling, full curve, poor fit]
34 | CC(C)(C)c1ccc(C(=O)N2CCC(C(=O)c3ccccc3)CC2)cc1 | -33 | 25.9 µM [falling, partial curve, poor fit] | 16.4 µM [falling, partial curve, poor fit]
35 | CC(C)n1c(=S)[nH]c2scc(-c3cccs3)c2c1=O | -3.93 |  | 0.291 µM [falling, full curve, poor fit]
36 | COc1ccc2[nH]c(=O)c(CNc3cccc(C)c3)cc2c1 | -31.7 | 0.184 µM [falling, full curve] | 0.411 µM [falling, partial curve]
37 | Cc1ccc(Nc2nc(N)nc(CN3CCN(Cc4ccc5c(c4)OCO5)CC3)n2)c(C)c1 |  | 5.8 µM [falling, single point] | 0.058 µM [rising, full curve, poor fit]
38 | COCCc1ncc(CN2CCCC(C(=O)Nc3cccc(-c4cccc(C)c4)c3)C2)cn1 (configuration not stated) | -13.3 |  | 29.1 µM [falling, single point]

From PubChem BioAssay AID2685 (National Center for Advancing Translational Sciences (NCATS), 2010)
